Record: PubChem BioAssay AID1259308 (NCATS, 2017)

- Aim: 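Genes whose loss raises luciferase production in HEK293 cells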 (primary screen)
- Cells: human HEK293 embryonic kidney cells stably expressing firefly luciferase (HEK-CMV-Luc2-Hygro)
- Reagents: single siRNA against human genes, 0.8 pmol siRNA per well
- Timing: 72 h
- Measured: 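Luciferase light (ONE-Glo) measured on one replicate plate set and viability (CellTiter-Glo) on the other, scaled to a negative control siRNA, with robust z-scores and luciferase per cell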
- Scale: total luciferase, z-score: higher = more reporter protein produced
- Call rule: 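An siRNA counts as active if its total luciferase robust z-score exceeds 3; genes with two or more such siRNAs out of three were retested with fresh siRNAs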
- Meaning of the calls: active = raised luciferase; inactive = no rise
This is one part, drawn at random, of about 59,000 reagents. Over the whole deposit, about 1,510 (2.6%) got an active call. 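Calls use total luciferase alone and ignore viability, so some active siRNAs may act by altering cell number.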 A number with no mark means an inactive call. Reagents against one gene are numbered here. Not all columns of the deposit are shown. Reagent sequences are not shown.

For RRP1 #1, what was measured?
total luciferase, z-score: -1.91

With RRP1 #2, how do the results read?
total luciferase, z-score: -1.5

What did the screen give for RRP1 #3?
total luciferase, z-score: 0.152

How did the screen score RNASEL #1?
total luciferase, z-score: -1.03

With RNASEL #2, what was measured?
total luciferase, z-score: -0.725

For RNASEL #3, what does the deposit list?
total luciferase, z-score: -1.11

Which result is listed for DND1 #1?
total luciferase, z-score: 0.56

What did the screen give for DND1 #2?
total luciferase, z-score: 1.19

What did the screen give for DND1 #3?
total luciferase, z-score: -0.048

For SLC25A36 #1, what does the deposit list?
total luciferase, z-score: 0.836

For SLC25A36 #2, what does the deposit list?
total luciferase, z-score: -1.9

What is on record for SLC25A36 #3?
total luciferase, z-score: 0.994

How did the screen score CA6 #1?
total luciferase, z-score: -0.811

What did the screen give for CA6 #2?
total luciferase, z-score: 0.978

For CA6 #3, what was measured?
total luciferase, z-score: 0.37

How did the screen score CPNE9 #1?
total luciferase, z-score: -0.0586

For CPNE9 #2, what was measured?
total luciferase, z-score: -0.754

For CPNE9 #3, what was measured?
total luciferase, z-score: -0.653

With LINC00479 #1, how do the results read?
total luciferase, z-score: -0.368

For LINC00479 #2, what was measured?
total luciferase, z-score: -0.151

What is on record for LINC00479 #3?
total luciferase, z-score: 1.36

For GPR143 #1, what was measured?
total luciferase, z-score: -0.151

For GPR143 #2, what does the deposit list?
total luciferase, z-score: -0.363

Which result is listed for GPR143 #3?
total luciferase, z-score: -0.0151

For ZNF668 #1, what was measured?
total luciferase, z-score: 2.83

For ZNF668 #2, how do the results read?
total luciferase, z-score: 1.41

Which result is listed for ZNF668 #3?
total luciferase, z-score: 1.01

Which result is listed for CLNK #1?
total luciferase, z-score: -1.67

What is on record for CLNK #2?
total luciferase, z-score: -0.17

For CLNK #3, what does the deposit list?
total luciferase, z-score: 0.0322

With TRAPPC13P1 #1, how do the results read?
total luciferase, z-score: 0.533

What is on record for TRAPPC13P1 #2?
total luciferase, z-score: 0.334

What is on record for TRAPPC13P1 #3?
total luciferase, z-score: 0.81

Already shown: an excerpt of the list.
TRAPPC13P1 #1 → total luciferase, z-score = 0.533
TRAPPC13P1 #2 → total luciferase, z-score = 0.334
TRAPPC13P1 #3 → total luciferase, z-score = 0.81
